Reference: PMC11464777, “Approved drugs successfully repurposed against Leishmania based on machine learning predictions” (Frontiers in Cellular and Infection Microbiology, 2024)
≈ marks a conversion by molar mass, not a printed value. Like-named read-outs stand apart in the source and are kept apart here.

How the values were obtained:
[1] = tested on: L. major Empa-12 promastigotes; assay: MTT-based promastigote viability assay, L. major Empa-12; assay type: cell-based; conditions: Leishmania major, Empa-12, 72 h
Source text: (§1) Three Tunisian laboratory strains already described ([Oualha et al., 2019]), originally isolated from distinct clinical manifestations were used in this study: (i) L. infantum LV50 MHOM/TN/94/LV50) strain originating from a bone marrow of a visceral leishmaniasis patient, (ii) L. infantum Drep-14 (MHOM/TN/96/Drep-14) strain isolated from a lesion of a sporadic cutaneous leishmaniasis patient and (iii) L. major Empa-12 (MHOM/TN/2012/Empa-12) strain isolated from a zoonotic cutaneous leishmaniasis patient. Stocks of these parasites obtained after passage through BALB/c mice were used as previously described ([Oualha et al., 2019]). […]
(§2) The effect of the selected compounds on the viability of Leishmania promastigotes was evaluated by a colorimetric MTT (3-(4,5-dimethylthiazol-2yl)-2,5-diphenyl tetrazolium bromide) assay. It consists in the reduction of tetrazolium salt to a […] crystal (blue formazan) by the succinate dehydrogenase activity of mitochondria in living cells, which can be quantified by spectrophotometry. […] Then, 150 μl of DMSO was added to each well to dissolve the blue formazan and the optical density (OD) was measured at 570 nm with a microplate reader ([…], Labsystems). […] The mean percentage of promastigotes viability was calculated from the Optical Density at 570 nm as follows: […]

[2] = tested on: L. major Empa-12 intracellular amastigotes; assay: Anti-amastigote assay in THP-1-derived macrophages, L. major Empa-12; assay type: cell-based; conditions: Leishmania major, Macrophage, Empa-12, intramacrophage, 72 h
Description: (§3) THP-1-derived macrophages (5 × 10^4/well) were seeded in each 8-well Labtek slides (Thermo Scientific). Adherent macrophages were obtained as described above, then infected with stationary phase promastigotes of each strain at a ratio 10:1 (10 parasites/macrophage) in RPMI medium containing penicillin (100 U/mL) and streptomycin (100 μg/mL) with 10% fetal bovine serum (Gibco, Brazil) at 37°C in 5% CO2 for 24 h. […] Non-infected control cells were incubated in a supplemented RPMI medium containing 1% DMSO. After 72h of incubation, cells were fixed and stained using May-Grunwald-Giemsa staining with RAL 555 Kit (RAL DIAGNOSTICS, France), following the manufacturer’s instructions. The percentage of infected cells and the total number of internalized parasites per 100 macrophages were determined under immersion oil (magnification of 1000X) using light microscopy. The percentage of amastigotes viability was expressed as the percentage of total number of internalized parasites within treated cells relative to the total number of internalized parasites within control cells treated with 1% DMSO, and calculated as follows:
(§4) Relative amastigote viability (%) = [(number of amastigotes/100 treated cells)/(number of amastigotes/100 treated cells with1% DMSO)] * 100
(§5) The relative percentage of amastigote viability was evaluated to calculate half inhibitory concentrations (IC50). […]

[3] = tested on: L. infantum Drep-14 promastigotes; assay: microbe, parasite or virus in culture; assay type: cell-based; conditions: Leishmania infantum, 72 h
Source text: as §1, §2

[4] = tested on: L. major and L. infantum amastigotes; assay: Anti-amastigote assay, stated across the three strains; assay type: cell-based, Leishmania infantum, Leishmania major; conditions: 72 h, LV50, Drep-14, Empa-12, intramacrophage, read-out: Amastigotes IC50, span over the three strains
Description: as §3, §4, §5

[5] = tested on: amastigotes of L. amazonensis; conditions: read-out: IC50 against amastigotes, relative to established threshold, ref Andrade-Neto et al., 2016; cited from earlier work
[6] = tested on: promastigotes of L. amazonensis; conditions: read-out: IC50 against promastigotes, ref Andrade-Neto et al., 2016; cited from earlier work
[7] = tested on: L. infantum (LV50 and Drep-14) and L. major (Empa-12) promastigotes; assay: MTT promastigote viability assay, stated across the three strains; assay type: cell-based, Leishmania major; conditions: Leishmania infantum, LV50, Drep-14, Empa-12, 72 h, read-out: Promastigotes IC50, span over the three strains
Source text: as §1, §2

With `O=c1[nH]c2ccccc2n1CCCN1CCC(n2c(=O)[nH]c3cc(Cl)ccc32)CC1` [Domperidone] the IC50 ([1]; read-out: Promastigotes IC50) was 8.17 ± 0.41 µg/mL, the IC50 ([1]; read-out: Promastigotes IC50 (in brackets) (converted)) was 19.2 µM and the IC50 ([2]; read-out: Amastigotes IC50) was 1.99 ± 0.1 µg/mL. It also gave an IC50 ([2]; read-out: Amastigotes IC50 (in brackets) (converted)) of 4.67 µM, an IC50 ([3]; read-out: Promastigotes IC50) of 6.3 ± 0.38 µg/mL and an IC50 ([3]; read-out: Promastigotes IC50 (in brackets)) of 14.8 µM. For the same compound, the IC50 [4] was at most 1.99 µg/mL, the IC50 [5] was under 25 µM and the IC50 [6] was 51 µM. The IC50 [7] was 6.3 to 8.17 µg/mL (≈ 14.8 to 19.2 µM).
